# According to PubChem BioAssay AID485353 (National Center for Advancing Translational Sciences (NCATS), 2010):
# In all, about 330,000 compounds went through this assay and about 610 (0.18%) were called active. The inconclusive results got no clear call from the source; some entries with a clear call stand among them for comparison. The call rests on the fitted dose curve. Where the call is inconclusive, the potency comes from a doubtful curve fit.
# Assay: qHTS of Yeast-based Assay for SARS-CoV PLP; further: nearly all actives have a fitted effect of over 55% in size
# Conditions: S. cerevisiae expressing SARS-CoV PLpro; Potency: growth rescue; series mostly up to 32.9 µM
# Potency means the concentration at half of the fitted maximal effect.
row,Compound,Potency
1,COc1ccc(/C=N/NC(=O)CCN2CCN(c3ccccc3)CC2)c(OC)c1OC,"inconclusive: 2.51 µM [activator, partial curve]"
2,Cc1cccc(C)c1NC(=O)CC1SC2=NCCN2C1=O (stereo not drawn),"inconclusive: 3.98 µM [activator, single point]"
3,COc1cccc(NC(=O)C(OC(=O)c2ccccc2NS(=O)(=O)c2cccs2)c2ccccc2)c1 (stereo not drawn),"inconclusive: 3.98 µM [activator, single point]"
4,Cc1cccc(-n2cnc(C(=O)NNC(=S)Nc3ccccc3)c2)n1,"inconclusive: 8.91 µM [activator, partial curve]"
5,CCc1cccc(C)c1NC(=O)CN(C)S(=O)(=O)c1ccc(-c2ccc(=O)[nH]n2)s1,"inconclusive: 14.1 µM [activator, single point]"
6,CSCCC(NC(=O)c1ccco1)C(=O)N1CCC(C(N)=O)CC1 (stereo not drawn),"inconclusive: 4.47 µM [activator, single point]"
7,CC(=O)c1cccc(NC(=O)CCc2nnc3ccc(N4CCN(C)CC4)nn23)c1,"inconclusive: 2 µM [activator, full curve]"
8,CC(C)[C@H](NC(=O)N1CCn2c1nc1ccccc12)C(=O)N[C@H](Cc1ccccc1)C(=O)O,"inconclusive: 14.1 µM [activator, single point]"
9,Nc1n[nH]c2c1C1(CCCCC1)Cc1ccccc1-2,inactive
10,O=S(=O)(c1ccc2oc3ccc(S(=O)(=O)N4CCCCC4)cc3c2c1)N1CCCCC1,"inconclusive: 4.47 µM [activator, single point]"
11,COc1ccc(N2C(=O)CC(Nc3ccc(C)cc3)C2=O)cc1 (stereo not drawn),"inconclusive: 20 µM [activator, single point]"
12,O=C(CN1C(=O)NC2(CCc3ccccc3C2)C1=O)Nc1ccc(Cl)cc1F (stereo not drawn),"inconclusive: 1 µM [activator, partial curve, poor fit]"
13,COc1ccccc1N1CCN(C2CCCN(C(=O)CC(F)(F)F)C2)CC1 (stereo not drawn),"inconclusive: 3.98 µM [activator, single point]"
14,N/C(CN1CCCC1=O)=N\OC(=O)c1ccc(Cl)cc1,inactive
15,COc1ccc(C2C(C(=O)c3cccs3)=C(O)C(=O)N2Cc2cccnc2)cc1OC (stereo not drawn),inactive
16,Cc1ccc(S(=O)(=O)N2CCN(C(=O)c3sccc3-c3ccccc3)CC2)cc1,"inconclusive: 3.98 µM [activator, single point]"
17,O=C(CSCc1cccc(Br)c1)NC1CC1,"inconclusive: 0.398 µM [activator, partial curve, poor fit]"
18,CCCCCCC(C)n1cc(C(C)=O)c(=O)n(C)c1=O (stereo not drawn),"inconclusive: 4.47 µM [activator, single point]"
19,CNC(=S)NNC(=O)COc1cccc(C)c1C,active: 10 µM
20,CCCOc1ccc(CSc2nc3ccccc3[nH]2)cc1,inactive
21,COc1cc(NS(=O)(=O)c2ccc(N/C=C\C(=O)c3ccc(F)cc3)cc2)nc(OC)n1,"inconclusive: 3.98 µM [activator, partial curve]"
22,CCN(Cc1ccccc1)c1ccc(/C=N/NC(=S)NC(C)C)cc1,"inconclusive: 20 µM [activator, single point]"

# Two entries from above, set out differently.
row	Compound	Potency
5	CCc1cccc(C)c1NC(=O)CN(C)S(=O)(=O)c1ccc(-c2ccc(=O)[nH]n2)s1	inconclusive: 14.1 µM [activator, single point]
6	CSCCC(NC(=O)c1ccco1)C(=O)N1CCC(C(N)=O)CC1 (stereo not drawn)	inconclusive: 4.47 µM [activator, single point]

# Later entries

row,Compound,Potency
1,Cc1cc(Cl)ccc1NC(=O)NC1CCN(S(=O)(=O)c2ccc(F)cc2)CC1,"inconclusive: 4.47 µM [activator, partial curve]"
2,CC1(C)Cc2c(sc3nc(SCC(=O)O)nc(N)c23)CO1,"inconclusive: 22.4 µM [activator, single point]"
3,O=C(c1ccco1)N1CCN=C1SCc1c(F)cccc1Cl,"inconclusive: 11.2 µM [activator, partial curve]"
4,CCCn1c(SCC(=O)NCCc2ccccc2)nnc1-c1ccco1,inactive
5,Cc1ccc(SCCC(=O)N2CCC(C(N)=O)CC2)cc1,"inconclusive: 2 µM [activator, full curve]"
6,CCN(C(=S)NC(=O)C1CCCC1)C1CCCCC1,"inconclusive: 10 µM [activator, single point]"
7,Clc1ccc(SCc2cc(-c3ccccc3)on2)cc1,"inconclusive: 20 µM [activator, single point]"
8,Cc1cccc(NC(=O)C2CCCN2/C=C/C(=O)C(F)(F)F)c1C (stereo not drawn),"inconclusive: 12.6 µM [activator, partial curve]"
9,CC(C)CCNC(=S)Nc1ccccc1F,"inconclusive: 14.1 µM [activator, single point]"
10,COc1ccc2[nH]c(C(=O)NCCc3ccccc3)cc2c1,"inconclusive: 3.98 µM [activator, single point]"
11,CC(C)(C)NC(=O)Cn1cc(C(=O)c2ccccc2F)c2ccccc21,"inconclusive: 20 µM [activator, single point]"
12,CC1CCCC(C)N1c1nnc(NC(=O)c2cc(-c3ccc(Br)cc3)on2)s1 (stereo not drawn),inactive
13,COc1cccc(NC(=S)N/N=C2\CC(C)(C)Oc3ccc(O)cc32)c1,"inconclusive: 11.2 µM [activator, partial curve]"
14,COc1ccccc1C(=O)OCC(=O)NC1CCCC1,inactive
15,COC(=O)C1=C(C)N(Cc2ccccc2)C(=NCCc2ccccn2)N[C@H]1c1cccc(F)c1,"inconclusive: 3.16 µM [activator, single point]"
16,O=c1c2c(-c3ccc(Cl)cc3)csc2ncn1/N=C/c1cccc([N+](=O)[O-])c1O,"inconclusive: 22.4 µM [activator, single point]"
17,CCN(CC)C(=O)[C@H]1C[C@H](CC(=O)NCCCN(C)C)C(=O)N2CCc3c([nH]c4cc(-c5ccco5)ccc34)[C@]12C,"inconclusive: 2.82 µM [activator, partial curve]"
18,Cc1cc(N2CCOCC2)nc(SCc2c(Cl)cccc2Cl)n1,inactive
19,CCC(=O)Nc1ccc(Cl)c(NC(=O)C(C)C)c1,"inconclusive: 3.16 µM [activator, partial curve]"
20,CCc1nc(SCC(=O)NCc2ccc(F)cc2)c2c(=O)n(C)c(=O)n(C)c2n1,"inconclusive: 20 µM [activator, single point]"
21,Cc1nn(-c2ccccc2)c(C)c1NS(=O)(=O)c1ccccc1,"inconclusive: 14.1 µM [activator, single point]"
